These are yes or no findings as the source states them, for the method shown. Some binding calls cover weakened binding; strength is not graded here.
Target: biotinylated IgE Fc (UniProt P01854)
Assay: as described for the monomers (ELISA)

Chains of the proteins cited; added tags and fusions are not shown. Lines headed by an entry give the natural chain unless they say otherwise; changes in a name come on top. A line that says so, or that is headed by a name, gives the form on record, which may keep a tag or linker.
biotinylated IgE Fc (P01854, form named): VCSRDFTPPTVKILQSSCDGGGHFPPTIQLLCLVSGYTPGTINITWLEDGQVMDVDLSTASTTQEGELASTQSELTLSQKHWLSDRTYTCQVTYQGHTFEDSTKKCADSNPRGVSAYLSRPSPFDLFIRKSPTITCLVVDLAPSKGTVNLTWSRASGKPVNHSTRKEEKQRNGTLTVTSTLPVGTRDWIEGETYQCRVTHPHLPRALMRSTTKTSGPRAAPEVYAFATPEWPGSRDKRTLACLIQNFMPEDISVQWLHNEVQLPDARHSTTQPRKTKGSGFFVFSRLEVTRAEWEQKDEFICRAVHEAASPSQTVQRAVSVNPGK

binding: binds
B1: sdAb A2 (VHH)
VHH: EVQLLESGGGLVQPGGSLRLSCAASGFRFGNYDMAWVRQAPGKRYEWVSSIDTGGDITHYADSVKGRFTISRDNAKNTLYLQMNSLRPEDTAEYWCATDEEYALGPNEFDYYGQGTLVTVS

Reference: US20250171562A1
